# Structures can show the parent of a compound that is named as a salt. ± gives the standard deviation of the averaged measurements. The list shows a part of the results. The data scatter; read single values as rough.
# System: hAMSC donor 2
# Test: Hoechst total cell count ratio vs vehicle control; hAMSC are human adipose-derived mesenchymal stem cells given an EGFP-luciferase plasmid by lipofection; higher = more cells (less toxicity)
# Conditions: priming compound concentration 13 µM
row,SMILES,Hoechst total cell count ratio
1,O=C1NC(=O)C(c2ccccc2)(c2ccccc2)N1 [Dilantin],1.02 ± 0.12
2,CC(C)C[C@H](NC(=O)[C@@H](COC(C)(C)C)NC(=O)[C@H](Cc1ccc(O)cc1)NC(=O)[C@H](CO)NC(=O)[C@H](Cc1c[nH]c2ccccc12)NC(=O)[C@H](Cc1cnc[nH]1)NC(=O)[C@@H]1CCC(=O)N1)C(=O)N[C@@H](CCCNC(=N)N)C(=O)N1CCC[C@H]1C(=O)NNC(N)=O [Goserelin acetate],1.32 ± 0.081
3,O=C1CN(/N=C/c2ccc(-c3ccc([N+](=O)[O-])cc3)o2)C(=O)N1 [Dantrolene sodium],1.18 ± 0.092
4,CCN(CC)CC(=O)Nc1c(C)cccc1C [Lidocaine],1.24 ± 0.2
5,C=CC[C@@H]1/C=C(\C)C[C@H](C)C[C@H](OC)[C@H]2O[C@@](O)(C(=O)C(=O)N3CCCC[C@H]3C(=O)O[C@H](/C(C)=C/[C@@H]3CC[C@@H](O)[C@H](OC)C3)[C@H](C)[C@@H](O)CC1=O)[C@H](C)C[C@@H]2OC [Tacrolimus],1.22 ± 0.15
6,CC[C@@H](CO)NCCN[C@@H](CC)CO [Ethambutol],1.1 ± 0.15
7,O=C(O)CCCc1ccccc1 [4-Phenylbutyric acid],0.919 ± 0.013
8,O=c1c(-c2ccccc2)c1-c1ccccc1 [Diphenylcyclopropenone],0.342 ± 0.17
9,CC(C)(C(=O)c1cccnc1)c1cccnc1 [Metyrapone],1.32 ± 0.14
10,COc1c(N2CCNC(C)C2)c(F)cc2c(=O)c(C(=O)O)cn(C3CC3)c12 (stereo not drawn) [Gatifloxacin],1.23 ± 0.16
11,Cc1cnc(C(=O)NCCc2ccc(S(=O)(=O)NC(=O)NC3CCCCC3)cc2)cn1 [Glipizide],1.37 ± 0.075
12,Clc1ccc(CO/N=C(\Cn2ccnc2)c2ccc(Cl)cc2Cl)c(Cl)c1 [Oxiconazole nitrate],1.42 ± 0.12
13,CN1CCN(CCCN2c3ccccc3Sc3ccc(Cl)cc32)CC1 [Prochlorperazine maleate],1.23 ± 0.068
14,C=C1/C(=C\C=C2/CCC[C@]3(C)[C@@H]([C@H](C)CCCC(C)(C)O)CC[C@@H]23)C[C@@H](O)C[C@@H]1O [Calcitriol],1.1 ± 0.078
15,C#C[C@]1(O)CC[C@H]2[C@@H]3CCc4cc(OC)ccc4[C@H]3CC[C@@]21C [Mestranol],1.68 ± 0.49
16,Nc1ccn([C@@H]2O[C@H](CO)[C@@H](O)[C@@H]2O)c(=O)n1 [Cytarabine],1.2 ± 0.053
17,COc1cccc2c1C(=O)c1c(O)c3c(c(O)c1C2=O)C[C@@](O)(C(C)=O)C[C@@H]3O[C@H]1C[C@H](N)[C@H](O)[C@H](C)O1 [Daunorubicin hydrochloride],0.0797 ± 0.014
18,CC/C(=C(\c1ccccc1)c1ccc(OCCN(C)C)cc1)c1ccccc1 [Tamoxifen],1.65 ± 0.12
19,COc1ccc(CN2CCN(C(c3ccc(F)cc3)c3ccc(F)cc3)CC2)c(OC)c1OC [Lomerizine dihydrochloride],3.89 ± 0.54

row,SMILES,Hoechst total cell count ratio
1,CC(C)NCC(O)COc1cccc2ccccc12 (stereo not drawn) [Propranolol hydrochloride],1.32 ± 0.16
2,CN[C@@H]1[C@H](O)[C@H](NC)[C@H]2O[C@@]3(O)C(=O)C[C@@H](C)O[C@H]3O[C@@H]2[C@H]1O [Spectinomycin],1.23 ± 0.24
3,C=C[C@H]1CN2CC[C@H]1C[C@@H]2[C@@H](O)c1ccnc2ccc(OC)cc12 [Quinidine],1.3 ± 0.2
4,N[C@@H]1CONC1=O [D-Cycloserine],1.14 ± 0.08
5,CC(C)NCC(O)c1ccc(O)c(O)c1 (stereo not drawn) [Isoproterenol hydrochloride],1.18 ± 0.13
6,NC(=O)c1cccnc1 [Nicotinamide],1.45 ± 0.14
7,CC(=O)Oc1ccccc1C(=O)Nc1ncc([N+](=O)[O-])s1 [Nitazoxanide],1.58 ± 0.18
8,Cc1nc2ccccn2c(=O)c1CCN1CCC(C(=O)c2ccc(F)cc2)CC1 [Pirenperone],1.44 ± 0.088
9,CC(C)(C(=O)O)c1ccc(C(O)CCCN2CCC(C(O)(c3ccccc3)c3ccccc3)CC2)cc1 (stereo not drawn) [Fexofenadine hydrochloride],1.23 ± 0.099
10,CC1CNc2c(cccc2S(=O)(=O)N[C@@H](CCCNC(=N)N)C(=O)N2CC[C@@H](C)C[C@@H]2C(=O)O)C1 (stereo partly drawn) [Argatroban],1.08 ± 0.13
11,O=c1[nH]cnc2c1ncn2[C@H]1CC[C@@H](CO)O1 [Didanosine],1.17 ± 0.033
12,CC(C)NCC(O)COc1ccc(COCCOC(C)C)cc1 (stereo not drawn) [Bisoprolol fumarate],1.14 ± 0.073
13,CCN1CCN(c2cc3c(cc2F)c(=O)c(C(=O)O)cn3C2CC2)CC1 [Enrofloxacin],1.1 ± 0.051
14,O=C1N(c2ccccc2)c2ccccc2C1(Cc1ccncc1)Cc1ccncc1 [Linopirdine dihydrochloride],1.05 ± 0.035
15,CN(C)CCC=C1c2ccccc2COc2ccccc21 [Doxepin hydrochloride],1.68 ± 0.14
16,C[C@@H]1CN(CCCn2c3ccccc3c3ccccc32)C[C@H](C)N1 [Rimcazole dihydrochloride],1.07 ± 0.073
17,Nc1nc2ccc(OC(F)(F)F)cc2s1 [Riluzole hydrochloride],1.68 ± 0.081
18,NC(N)=Nc1nc(CSCC/C(N)=N/S(N)(=O)=O)cs1 [Famotidine],1.25 ± 0.096
19,CN(C)CCN(Cc1ccccc1)c1ccccn1 [Tripelennamine hydrochloride],1.06 ± 0.067

# Laid out differently: entries from further up.
row | SMILES | Hoechst total cell count ratio
1 | CC(C)NCC(O)COc1cccc2ccccc12 (stereo not drawn) [Propranolol hydrochloride] | 1.32 ± 0.16
11 | O=c1[nH]cnc2c1ncn2[C@H]1CC[C@@H](CO)O1 [Didanosine] | 1.17 ± 0.033

# — the supplement of paper PMC7238544
